Results taken from patent US20090220462A1, “STEM CELLS” (Duke University, priority 2005, published 2009).
At least one compound was matched to its structure with a doubt left.

How the values were obtained:
[1] = test system: CB CD34+CD38−lin− cells (SRCs); experiment: Long-term repopulating assay in NOD/SCID mice, CB cells (limiting dilution, SRC frequency); format: in vivo, human; conditions: progeny of DEAB+TSF-cultured CB cells, Poisson analysis, CI 1/490 to 1/1,600 (day 0 and TSF 1 in 1,700)
Description: (§1) NOD/SCID mice (Schulz et al, J. Immunol. 154:180-191 (1995)) were transplanted with either day 0 FACS-sorted BM or CB CD34^+CD38^−lin− HSC-enriched cells or the progeny of CD34^+CD38^−lin− cells cultured with TSF alone or TSF supplemented with 100 μM DEAB. Cells were transplanted via tail vein injection after irradiating NOD/SCID mice with 300 cGy using an X-ray irradiator as previously described (Chute et al, Blood 100:4433-4439 (2002), Chute et al, Blood 105:576-583 (2005)). […]
(§2) Comparisons of data from in vitro experiments were made using the Student's t test. For purposes of the limiting dilution analysis, a transplanted mouse was scored as positively engrafted if ≧0.1% of the marrow cells expressed human-CD45 via high resolution FACS analysis. […] SRC frequency in each cell source was calculated using the maximum likelihood estimator as described previously by Taswell (J. Immunol. 126:1614-1619 (1981), Wang et al, Blood 89:3919-3924 (1997), Ueda et al, J. Clin. Invest. 105:1013-1021 (2000)). Confidence intervals for the frequencies were calculated using the profile likelihood method, and the likelihood ratio test was used to confirm the fit of the model.

[2] = test system: BM CD34+CD38−lin− cells (SRCs); experiment: Long-term repopulating assay in NOD/SCID mice, BM cells (SRC frequency); format: in vivo, human; conditions: DEAB+TSF cultures, Poisson analysis, CI 1/4,700-1/50,000
Description: as §1, §2

SMILES: CCN(CC)c1ccc(C=O)cc1 [DEAB]
- SRC frequency [1]: 1 in 840 cells
- SRC frequency [2]: 1 in 12,000
